# Values joined by “and” are separate entries in the source; they are usually repeats but may differ in a detail not shown here. Identical values can stand only once. Counter-ions that a name gives are not always drawn. ± gives the standard deviation of the averaged measurements. The list shows a part of the results. Part of the spread comes from offsets between plates or batches.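 Assay uses culture-activated primary human stellate myofibroblasts; lipid droplet recovery indicates inactivation. Measured: proportion of Hoechst-counted cells over a plate-specific Bodipy cutoff, duplicate wells, DMSO and nortriptyline as per-plate negative and positive controls. A hit scores, control-normalized, above the plate's top-tenth-percentile nortriptyline wells or ranks among its three best wells. Final well concentrations not reported.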
# Tested on: primary human hepatic stellate cells (donor 1)
# Assay: percent Bodipy-positive cells; higher = more lipid droplet accumulation
# Conditions: 48 h
# [1] = library stock concentration: 10 mM
# [2] = library stock concentration: 3.33 mM
# [3] = library stock concentration: 80 uM
# [4] = library stock concentration: 400 uM
# [5] = library stock concentration: 2 mM
# [6] = library stock concentration: 1 mM
structure (smiles),measurement,setting,value
CC1Nc2ccc(Cl)cc2S(=O)(=O)N1 (stereo not given),percent Bodipy-positive cells,[1],8.03 ± 3%
OCCN1CCN(CCCN2c3ccccc3Sc3ccc(Cl)cc32)CC1 [Perphenazine],percent Bodipy-positive cells,[1],92.5 ± 3.2%
CCC(=O)c1ccc(O)cc1,percent Bodipy-positive cells,[1],30.4 ± 7%
C=CC(=O)Nc1cccc(Nc2nc(Nc3ccc(N4CCN(C(C)=O)CC4)cc3OC)ncc2C(F)(F)F)c1,percent Bodipy-positive cells,[2],25.7 ± 9.3%
same,percent Bodipy-positive cells,[1],48.5 ± 5.8%
CS(=O)(=O)CCNCc1ccc(-c2ccc3ncnc(Nc4ccc(OCc5cccc(F)c5)c(Cl)c4)c3c2)o1,percent Bodipy-positive cells,[3],8.63 ± 2.7%
same,percent Bodipy-positive cells,[4],15% and 39.9%
same,percent Bodipy-positive cells,[5],58.6 ± 10%
same,percent Bodipy-positive cells,[1],49.6 ± 5.2%
COC(=O)c1sccc1S(=O)(=O)Nc1ccc(Nc2ccccc2)cc1OC,percent Bodipy-positive cells,[1],12.8 ± 6.5%
CC(C)(Sc1cc(C(C)(C)C)c(O)c(C(C)(C)C)c1)Sc1cc(C(C)(C)C)c(O)c(C(C)(C)C)c1 [Probucol],percent Bodipy-positive cells,,27.9 ± 0.75%
same,percent Bodipy-positive cells,[2],9.35 ± 1.6%
same,percent Bodipy-positive cells,[1],11.3% and 31.3%
"CCCCCC#CCC#CCCCCCCCC(=O)O [9,12-Octadecadiynoic Acid]",percent Bodipy-positive cells,[6],9.85 ± 1.1%
CCCCC[C@H](O)/C=C/[C@H]1[C@H](O)CC(=O)[C@@H]1C/C=C\CCCC(=O)NCCO [Prostaglandin E2 Ethanolamide],percent Bodipy-positive cells,[6],19.9 ± 1.1%
CN1CCc2ccccc2Cc2[nH]c3ccccc3c2CC1,percent Bodipy-positive cells,[1],57.3 ± 5.9%
CCCCCCCCCC(=O)NC(CN1CCOCC1)C(O)c1ccccc1 (racemic),percent Bodipy-positive cells,[6],8.8 ± 8.1%
CCC[C@H](Nc1nc(-c2ccc(NC(=O)NCC)c(OC)c2)ncc1C)c1cccnc1 [CYT997 (Lexibulin)],percent Bodipy-positive cells,[2],74.2 ± 15%
same,percent Bodipy-positive cells,[1],79.64 ± 0.73%
COC1C(O)CC(=O)OC(C)CC=CC=CC(OC2CCC(N(C)C)C(C)O2)C(C)CC(CC=O)C1OC1OC(C)C(OC2CC(C)(O)C(O)C(C)O2)C(N(C)C)C1O (stereo not given) [Spiramycin],percent Bodipy-positive cells,[2],20.05 ± 0.2%
same,percent Bodipy-positive cells,[1],62.9 ± 3.3%
"CCCCc1c(-c2ccc(OC)cc2)[nH]c2nccnc12 [Aloisine, RP106]",percent Bodipy-positive cells,[2],17.9 ± 5.2%
O=c1cc(N2CCNCC2)oc2c(-c3ccccc3)cccc12,percent Bodipy-positive cells,[2],42.3 ± 2.7%
CC(=O)c1cnc2ccc(-c3cc(Cl)c(O)c(Cl)c3)nc2c1N[C@H]1CC[C@H](CN(C)C)CC1.Cl,percent Bodipy-positive cells,[1],91.1 ± 2.8%
COc1cc2ncc(-c3ccccc3)nc2cc1OC [Tyrphostin AG 1296],percent Bodipy-positive cells,[2],25.5 ± 3.2%
same,percent Bodipy-positive cells,[1],31.9 ± 5.9%
COc1cc2ncc(-c3ccccc3)nc2cc1OC,percent Bodipy-positive cells,[2],10.42 ± 0.1%
same,percent Bodipy-positive cells,library stock concentration: 18.8 mM,23.7 ± 4.8%
COc1cc(Nc2ncc(F)c(Nc3ccc4c(n3)NC(=O)C(C)(C)O4)n2)cc(OC)c1OC,percent Bodipy-positive cells,[3],8.43 ± 3.4%
same,percent Bodipy-positive cells,[4],5.03 ± 0.14%
same,percent Bodipy-positive cells,[5],29.2 ± 4.4%
same,percent Bodipy-positive cells,[2],30.4 ± 2.6%
CN1CCCN=C1COC(=O)C(O)(c1ccccc1)C1CCCCC1 (stereo not given) [Oxyphencyclimine hydrochloride],percent Bodipy-positive cells,library stock concentration: 5.3 mM,12.6 ± 0.27%
same,percent Bodipy-positive cells,[1],63 ± 2.2%
CC(C)(Oc1ccc(Cl)cc1)C(=O)O [Clofibric Acid],percent Bodipy-positive cells,[2],9.71 ± 3.9%
same,percent Bodipy-positive cells,[1],22.2 ± 0.53%
CC(C)(Oc1ccc(Cl)cc1)C(=O)O [Clofibric acid],percent Bodipy-positive cells,,12.5 ± 0.14%
same,percent Bodipy-positive cells,[1],9.13% and 7.69%
COc1ccc(C(=O)Nc2sc3c(c2C(N)=O)CCCC3)cc1OC,percent Bodipy-positive cells,[2],76.88 ± 0.34%
CC(=O)N[C@@H](CCC(N)=O)C(=O)O,percent Bodipy-positive cells,[1],26.4 ± 1.3%
CC(=O)NO [Acetohydroxamic acid],percent Bodipy-positive cells,[1],9.91 ± 3.4%
CC(N)(Cc1ccc(O)c(O)c1)C(=O)O (stereo not given),percent Bodipy-positive cells,[1],6.91 ± 2.4%
O=NO [Sodium Nitrite],percent Bodipy-positive cells,[2],12.1 ± 2.3%
same,percent Bodipy-positive cells,[1],24.4 ± 13%
N[C@@H](Cn1ccc(=O)c(O)c1)C(=O)O [L-Mimosine from Koa hoale seeds],percent Bodipy-positive cells,[1],25.5 ± 3%
CN(C)CC/C=C1\c2ccccc2CSc2ccccc21 [Dosulepin hydrochloride],percent Bodipy-positive cells,,80.4 ± 1.9%
COC(=O)[C@H](Cc1ccccc1)NC(=O)/C=C/c1ccc(O)cc1,percent Bodipy-positive cells,[6],7.24 ± 0.69%
CC(C)(S)[C@@H](N)C(=O)O [Penicillamine],percent Bodipy-positive cells,[1],18.8 ± 6.7%
same,percent Bodipy-positive cells,library stock concentration: 13.4 mM,87.6 ± 1.3%
O=C(O)C1CSCN1 (stereo not given),percent Bodipy-positive cells,[1],34.4 ± 9.2%
Cc1cc(C(=O)NNCc2ccccc2)no1 [Isocarboxazid],percent Bodipy-positive cells,,9.89 ± 7.8%
CO[C@H]1C[C@H](O[C@H]2[C@H](C)[C@@H](O[C@@H]3O[C@H](C)C[C@H](N(C)C)[C@H]3OC(C)=O)[C@@H](C)C[C@@]3(CO3)C(=O)[C@H](C)[C@@H](OC(C)=O)[C@@H](C)[C@@H](C)OC(=O)[C@@H]2C)O[C@@H](C)[C@@H]1OC(C)=O [Troleandomycin],percent Bodipy-positive cells,,27.3 ± 1.5%
same,percent Bodipy-positive cells,[1],32.6 ± 9.2%
COc1ccc(-c2ccc(=N)n(CCCC(=O)O)n2)cc1 [Gabazine],percent Bodipy-positive cells,,28.8 ± 0.81%
COc1ccc(-c2ccc(=N)n(CCCC(=O)O)n2)cc1,percent Bodipy-positive cells,[1],16.3% and 8.7%
Cc1cc(Nc2ncnc3ccc(-c4ccc(CNCCS(C)(=O)=O)o4)cc23)ccc1Oc1ccn2ncnc2c1 [HER2-Inhibitor-1],percent Bodipy-positive cells,[1],94 ± 1.3%
CCC(=O)OCC(=O)[C@@]1(OC(=O)CC)[C@H](C)CC2C3C([C@@H](O)C[C@@]21C)[C@@]1(C)C=CC(=O)C=C1C[C@H]3Cl (stereo not given in full),percent Bodipy-positive cells,[1],24.4 ± 4.5%
CSc1ccc(C(=O)c2[nH]c(=O)[nH]c2C)cc1 [Enoximone],percent Bodipy-positive cells,[1],30.4 ± 3.1%
S=C(Nc1ccccc1)Nc1nccs1 [1-Phenyl-3-(2-thiazolyl)-2-thiourea],percent Bodipy-positive cells,[1],39.1 ± 8.6%
CCCCC[C@H](O)/C=C/[C@@H]1[C@@H](C/C=C\CCCC(=O)NCCO)[C@@H](O)C[C@H]1O [Prostaglandin F2.alpha. Ethanolamide],percent Bodipy-positive cells,[6],11.8 ± 3.8%

# — the supplement of paper PMC9135407
